From the supplement of paper PMC10735217
Counter-ions that a name gives are not always drawn. The list shows a part of the results. Single values are uncertain here, since repeats match poorly.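 In a drug-repurposing library screen, luminescence reads luciferase driven by eight TEAD-binding elements, stably integrated into human kidney-derived cells. Compounds scoring over five robust Z scores above the plate mean are called hits.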

Test system: HEK293A TEAD-LUC reporter
Test: TEAD-luciferase reporter activity (YAP activation), robust Z score vs plate; higher = stronger YAP/TEAD activation
Conditions: 24 h

Structure (SMILES)	TEAD-luciferase reporter activity (compound concentration: 200 nM)	TEAD-luciferase reporter activity (compound concentration: 2 uM)	TEAD-luciferase reporter activity (compound concentration: 10 uM)
Nc1nc(OCc2cc(Br)cs2)c2nc[nH]c2n1 [Lomeguatrib]	inactive: -2.49	inactive: 0.138	inactive: 1.34
CCCCOC(=O)CS(=O)c1nc2cccnc2s1 (stereo not drawn)	inactive: 0.947	inactive: -1.6	inactive: 0.0309
CCOc1ccccc1-c1nc(-c2ccccc2)c(-c2ccccc2)[nH]1	inactive: 0.0748	inactive: 0.0329	active: 5.06
O=C([O-])CC([S][Au])C(=O)[O-] (stereo not drawn) [Aurothiomalate disodium]	inactive: -1.16	inactive: -1.64	inactive: 0.161
C/C=C1\C(=O)C[C@H]2[C@@H]3CCC4=CC(=O)CCC4(C)[C@H]3CCC12C (stereo partly drawn) [(Z)-Guggulsterone]	inactive: 0.228	inactive: 1.6	inactive: 0.227
Nc1nc(O)c2nc(CNc3ccc(C(=O)N[C@@H](CCC(=O)O)C(=O)O)cc3)cnc2n1 [Folic acid]	–	inactive: 0.496	–
Nc1nc(O)c2nc(CNc3ccc(C(=O)N[C@@H](CCC(=O)O)C(=O)O)cc3)cnc2n1	inactive: -1.26	–	inactive: -2.07
Nc1ccn([C@@H]2O[C@H](COP(=O)(O)O)[C@@H](O)[C@H]2O)c(=O)n1	inactive: -0.564	–	inactive: 2.1
Cn1cnc2c(NC3C[C@@H]4CC[C@H]3C4)ncnc21 (stereo partly drawn)	inactive: -0.106	inactive: -0.351	inactive: 0.355
O=C1c2ccccc2CN1C1CCN(CC2CC2)CC1	inactive: 0.161	–	inactive: 3.87
Cc1ncc([N+](=O)[O-])n1CCOC(=O)c1ccccc1 [Benzoyl Metronidazole]	inactive: 1	inactive: -1.25	inactive: -0.546
Cc1nsc(-c2nnc3n2CCN(C(=O)c2ccc(F)cc2)[C@@H]3C)n1	inactive: -1.45	inactive: 0.0407	inactive: 1.56
CSCCOC(=O)C1=C(C)NC(C)=C(C(=O)OCCSC)C1c1ccccc1[N+](=O)[O-]	inactive: 0.255	inactive: -0.215	inactive: 1.15
Nc1cccc(CN2C(=O)N(Cc3cccc(N)c3)[C@H](Cc3ccccc3)[C@H](O)[C@@H](O)[C@H]2Cc2ccccc2)c1	inactive: -0.476	inactive: -0.504	inactive: 3.45
CC(C)=CCC/C(C)=C/CC/C(C)=C/CC[C@]1(C)CCc2cc(O)cc(C)c2O1 [delta-Tocotrienol]	inactive: 0.605	inactive: -0.808	inactive: -0.457
Cn1cc(-c2cc3c(N4CCN(c5ncc(C(C)(O)c6ccc(F)cc6)cn5)CC4)ncnn3c2)cn1 (stereo not drawn) [analog of BLU-285]	inactive: -1.51	inactive: -1.39	inactive: -0.985
Cc1cccc(C)c1NC(=O)NC1=CCCN1C [Xilobam]	inactive: -1.12	inactive: -0.321	inactive: 0.441
CC(=O)OCC(=O)[C@@]1(O)CC[C@H]2[C@@H]3CCC4=CC(=O)CC[C@]4(C)[C@H]3C(=O)C[C@@]21C	inactive: 0.312	–	inactive: 0.955
CC(=O)OCC(=O)[C@@]1(O)CC[C@H]2[C@@H]3CCC4=CC(=O)CC[C@]4(C)[C@H]3C(=O)C[C@@]21C [Cortisone acetate]	–	inactive: 0.367	–
CCCCCCCCCCNCCN[C@@]1(C)C[C@H](O[C@H]2[C@H](Oc3c4cc5cc3Oc3ccc(cc3Cl)[C@@H](O)[C@@H](NC(=O)[C@@H](CC(C)C)NC)C(=O)N[C@@H](CC(N)=O)C(=O)N[C@H]5C(=O)N[C@H]3C(=O)N[C@H](C(=O)N[C@H](C(=O)O)c5cc(O)c(CNCP(=O)(O)O)c(O)c5-c5cc3ccc5O)[C@H](O)c3ccc(c(Cl)c3)O4)O[C@H](CO)[C@@H](O)[C@@H]2O)O[C@@H](C)[C@H]1O [Telavancin HCl]	inactive: -1.09	–	inactive: 0.323
CCOC(=O)Cc1csc(NC(=O)c2cn(C)c3ccccc23)n1	inactive: -0.263	inactive: 0.424	inactive: 1.38
C/C=C(\C)C(=O)OC1CC2C(CC=C3CC(OC4CC(OC)C(OC5CC(OC)C(OC6CC(OC)C(OC7CC(OC)C(OC8CC(OC)C(OC9OC(CO)C(O)C(O)C9O)C(C)O8)C(C)O7)C(C)O6)C(C)O5)C(C)O4)CCC32C)C2(O)CCC(C(C)=O)C12C (stereo not drawn)	inactive: -0.642	inactive: 2.37	inactive: 0.415
O=C(O)c1ccccc1Nc1cccc(OCc2ccc3ccccc3n2)c1	inactive: -1.3	inactive: -0.897	active: 5.78
COc1cccc(C(=O)N[C@@H]2C[C@H]3CC[C@@H](C2)N3Cc2ccccc2)c1OC [Tropapride]	inactive: -1.06	inactive: -1.61	inactive: -0.605
CC(CN1C(=O)c2cccnc2Nc2ccccc21)N(C)C (stereo not drawn)	inactive: -0.382	inactive: -0.91	inactive: -1.16
CCCCOc1ccc(S(=O)(=O)N2CC3(C[C@@H]2C(=O)NO)OCCCO3)cc1	inactive: -0.742	inactive: -0.801	inactive: 0.00629

A run of entries from the list above, as a working copy:
Structure (SMILES)	TEAD-luciferase reporter activity (compound concentration: 200 nM)	TEAD-luciferase reporter activity (compound concentration: 2 uM)	TEAD-luciferase reporter activity (compound concentration: 10 uM)
C/C=C(\C)C(=O)OC1CC2C(CC=C3CC(OC4CC(OC)C(OC5CC(OC)C(OC6CC(OC)C(OC7CC(OC)C(OC8CC(OC)C(OC9OC(CO)C(O)C(O)C9O)C(C)O8)C(C)O7)C(C)O6)C(C)O5)C(C)O4)CCC32C)C2(O)CCC(C(C)=O)C12C (stereo not drawn)	inactive: -0.642	inactive: 2.37	inactive: 0.415
O=C(O)c1ccccc1Nc1cccc(OCc2ccc3ccccc3n2)c1	inactive: -1.3	inactive: -0.897	active: 5.78

Carrying on.

Structure (SMILES)	TEAD-luciferase reporter activity (compound concentration: 200 nM)	TEAD-luciferase reporter activity (compound concentration: 2 uM)	TEAD-luciferase reporter activity (compound concentration: 10 uM)
CCCCOC(=O)NS(=O)(=O)c1ccc(CCC)cc1-c1ccc(Cn2c(CC)nc3c(C)cc(C)nc32)cc1	active: 5.16	inactive: 1.13	inactive: 1.4
CNCCC(Oc1ccccc1SC)c1ccccc1 (stereo not drawn)	inactive: -0.269	inactive: 0.224	inactive: -0.317
NS(=O)(=O)c1cncc(-c2nc(NCc3ccccn3)c3c(-c4ccccc4)cccc3n2)c1	inactive: 1.53	inactive: 0.358	inactive: 1.85
COc1ccc(Cl)cc1C(=O)NCCc1ccc(S(=O)(=O)NC(=O)NC2CCCCC2)cc1	inactive: 0.299	–	inactive: 1.74
COc1ccc(Cl)cc1C(=O)NCCc1ccc(S(=O)(=O)NC(=O)NC2CCCCC2)cc1 [glyburide]	–	inactive: 0.847	–
Oc1ccc(C2=Cc3ccc(O)cc3OC2)cc1 [Idronoxil]	inactive: -0.693	inactive: -0.16	inactive: 0.158
O=c1oc2ccccc2c(O)c1Cc1c(O)c2ccccc2oc1=O [Dicoumarol]	inactive: -2.15	inactive: -0.257	inactive: -0.526
CONC(=O)c1ccc(C)c(Nc2ncnn3cc(C(=O)NCc4ccccn4)c(C)c23)c1	inactive: -1.39	inactive: -1.23	inactive: -0.624
Cn1c(=O)cc(N2CCC[C@@H](N)C2)n(Cc2cc(F)ccc2C#N)c1=O [Trelagliptin succinate]	inactive: -0.424	inactive: -0.878	inactive: -2.77
Cc1oc(-c2ccccc2)nc1CCC(=O)c1ccc(CC2SC(=O)NC2=O)cc1 (stereo not drawn) [Darglitazone]	inactive: -0.776	inactive: 1.38	inactive: 0.546
CS(=O)(=O)Oc1ccc2c(NC(N)=O)c(C(=O)c3ccc(Cl)cc3Cl)oc2c1 [Lirimilast]	inactive: -0.441	inactive: -0.945	active: 5.44
C=C1/C(=C\C=C2/CCC[C@]3(C)[C@@H]([C@H](C)/C=C/[C@H](C)C(C)C)CC[C@@H]23)C[C@@H](O)C[C@@H]1O [Doxercalciferol]	inactive: 1.06	inactive: 0.612	inactive: 3.14
COc1cccc(C(=O)Nc2ccc3c(c2)CCN(C(=O)Oc2ccccc2)C3)c1-c1ccc(C(F)(F)F)cc1	inactive: -1.27	inactive: -1.19	inactive: 0.772
CCC1C(=O)OCC1Cc1cncn1C (stereo not drawn) [pilocarpine, Alza]	inactive: -1.54	inactive: 0.321	inactive: 0.361
CNC(=S)C1(c2ccccn2)CCCS1 (stereo not drawn) [Picartamide]	inactive: -0.837	inactive: -1.65	inactive: -1.13
CC(C)/N=C/Nc1ccc(-c2c[nH]cn2)cc1	inactive: 1.68	inactive: -0.198	inactive: -1.29
COc1ccccc1OCCNCC(O)c1ccc(C)c(S(N)(=O)=O)c1 (stereo not drawn)	inactive: 2.15	inactive: -1.04	inactive: -0.87
C[N+](C)(C)CCOC(N)=O [Carbachol]	–	inactive: -0.22	–
C[N+](C)(C)CCOC(N)=O	inactive: -2.05	–	inactive: 3.24
COc1cccc2c1ccc1nc3cccc(C(=O)N[C@@H](C)CN(C)C)c3nc12	inactive: -0.168	inactive: 0.0342	inactive: 1.49
CC(C)(C)C(=O)Oc1ccc(S(=O)(=O)Nc2ccccc2C(=O)NCC(=O)O)cc1 [sivelestat sodium hydrate]	inactive: -1.64	inactive: 4.17	inactive: -0.304
O=C(O)[C@@H]1CCCN(CCC=C2c3ccccc3CCc3ccccc32)C1	inactive: -1.06	inactive: -0.993	inactive: -0.401
CCCC(=O)c1c(O)cc(OC)c(C)c1O	inactive: 0.0847	inactive: -0.788	inactive: -0.755
C[C@@](O)(C(=O)Nc1ccc(C(=O)c2ccccc2)cc1)C(F)(F)F	inactive: 0.904	inactive: 2.08	inactive: -0.0137
CCNC(=O)[C@@H]1CCCN1C(=O)[C@H](CCCNC(=N)N)NC(=O)[C@@H](NC(=O)[C@H](NC(=O)[C@H](Cc1ccc(O)cc1)NC(=O)C(CO)NC(=O)[C@H](Cc1c[nH]c2ccccc12)NC(=O)[C@H](Cc1c[nH]cn1)NC(=O)C1CCC(=O)N1)C(C)C)C(C)C (stereo partly drawn) [analog of LEUPROLIDE ACETATE]	inactive: -1.5	inactive: -0.297	inactive: 0.487
